Data as given in PubChem BioAssay AID1224828 (NIAID, 2016)

Purpose: 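Find genes required for NF-kappaB p65 moving into the nucleus after LPS in mouse macrophages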 (primary screen)
Cells: mouse RAW264.7 G9 macrophage reporter cells (GFP-p65, Tnf promoter-mCherry)
Reagents: siRNA pool against mouse genes, 100 nM
Timing: 2 days siRNA transfection, then 40 min LPS before fixation
Conditions: LPS (Salmonella minnesota R595) at 10 ng/ml
Measured: 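Imaged p65 nuclear translocation ratio, normalised to the plate median, converted to robust z-scores and averaged across two replicates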
Direction: p65 translocation robust z-score: higher = more nuclear NF-kappaB p65 after LPS than the plate median; nuclear/cytoplasmic p65 ratio: higher = more nuclear NF-kappaB p65
Call rule: 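Active if robust z is above 3.3 (negative regulators) or below -1.56, the Tlr4 control median (positive regulators); activity score 50 or more; control wells not called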
Calls: active = hit (p65 shift raised or lowered); inactive = no clear change
In all, the deposit lists about 17,000 reagents; below is a random part of them. Of all reagents, 762 (4.5%) were called active. 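Active calls include both raised and lowered p65 entry, mostly lowered; wells with fewer than 50 cells lack a z-score.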 Raw values vary from plate to plate and are shown uncorrected. A number with no mark means an inactive call.

BC053071
- p65 translocation robust z-score: -0.36
- nuclear/cytoplasmic p65 ratio, rep 1: 1.38
- nuclear/cytoplasmic p65 ratio, rep 2: 1.48
- low cell count flag: enough cells to score

Cckbr (GeneID 12426)
- p65 translocation robust z-score: -1.16
- nuclear/cytoplasmic p65 ratio, rep 1: 1.35
- nuclear/cytoplasmic p65 ratio, rep 2: 1.19
- low cell count flag: enough cells to score

Ralgps1 (GeneID 241308)
- p65 translocation robust z-score: 1.54
- nuclear/cytoplasmic p65 ratio, rep 1: 1.59
- nuclear/cytoplasmic p65 ratio, rep 2: 1.38
- low cell count flag: enough cells to score

Slc12a3 (GeneID 20497)
- p65 translocation robust z-score: -0.37
- nuclear/cytoplasmic p65 ratio, rep 1: 1.48
- nuclear/cytoplasmic p65 ratio, rep 2: 1.46
- low cell count flag: enough cells to score

Or6z6 (GeneID 258383)
- nuclear/cytoplasmic p65 ratio, rep 1: 1.44
- nuclear/cytoplasmic p65 ratio, rep 2: 1.11
- low cell count flag: fewer than 50 cells per well; well left out of scoring

Zfp358 (GeneID 140482)
- p65 translocation robust z-score: 1.83
- nuclear/cytoplasmic p65 ratio, rep 1: 1.68
- nuclear/cytoplasmic p65 ratio, rep 2: 1.44
- low cell count flag: enough cells to score

Kif2c (GeneID 73804)
- p65 translocation robust z-score: 0.6
- nuclear/cytoplasmic p65 ratio, rep 1: 1.59
- nuclear/cytoplasmic p65 ratio, rep 2: 1.42
- low cell count flag: enough cells to score

S100b (GeneID 20203)
- p65 translocation robust z-score: -0.95
- nuclear/cytoplasmic p65 ratio, rep 1: 1.35
- nuclear/cytoplasmic p65 ratio, rep 2: 1.41
- low cell count flag: enough cells to score

L2hgdh (GeneID 217666)
- p65 translocation robust z-score: 0.44
- nuclear/cytoplasmic p65 ratio, rep 1: 1.73
- nuclear/cytoplasmic p65 ratio, rep 2: 1.82
- low cell count flag: enough cells to score

Nobox (GeneID 18291)
- p65 translocation robust z-score: 0.86
- nuclear/cytoplasmic p65 ratio, rep 1: 1.78
- nuclear/cytoplasmic p65 ratio, rep 2: 1.71
- low cell count flag: enough cells to score

Ank (GeneID 11732)
- p65 translocation robust z-score: -0.13
- nuclear/cytoplasmic p65 ratio, rep 1: 1.59
- nuclear/cytoplasmic p65 ratio, rep 2: 1.61
- low cell count flag: enough cells to score

Not a retest: entries from further up.
Ralgps1 (GeneID 241308)
- p65 translocation robust z-score: 1.54
- nuclear/cytoplasmic p65 ratio, rep 1: 1.59
- nuclear/cytoplasmic p65 ratio, rep 2: 1.38
- low cell count flag: enough cells to score

Slc12a3 (GeneID 20497)
- p65 translocation robust z-score: -0.37
- nuclear/cytoplasmic p65 ratio, rep 1: 1.48
- nuclear/cytoplasmic p65 ratio, rep 2: 1.46
- low cell count flag: enough cells to score

More results follow.
Or2z9 (GeneID 258532)
- p65 translocation robust z-score: -0.1
- nuclear/cytoplasmic p65 ratio, rep 1: 1.59
- nuclear/cytoplasmic p65 ratio, rep 2: 1.32
- low cell count flag: enough cells to score

C8b (GeneID 110382)
- p65 translocation robust z-score: -1.03
- nuclear/cytoplasmic p65 ratio, rep 1: 1.47
- nuclear/cytoplasmic p65 ratio, rep 2: 1.45
- low cell count flag: enough cells to score

Sftpd (GeneID 20390)
- p65 translocation robust z-score: -1.63 (active)
- nuclear/cytoplasmic p65 ratio, rep 1: 1.35
- nuclear/cytoplasmic p65 ratio, rep 2: 1.29
- low cell count flag: enough cells to score

Il5ra (GeneID 16192)
- p65 translocation robust z-score: 0.81
- nuclear/cytoplasmic p65 ratio, rep 1: 1.78
- nuclear/cytoplasmic p65 ratio, rep 2: 1.31
- low cell count flag: enough cells to score

Slc4a9 (GeneID 240215)
- nuclear/cytoplasmic p65 ratio, rep 1: 1.35
- nuclear/cytoplasmic p65 ratio, rep 2: 1.44
- low cell count flag: fewer than 50 cells per well; well left out of scoring

Rit2 (GeneID 19762)
- p65 translocation robust z-score: -1.86 (active)
- nuclear/cytoplasmic p65 ratio, rep 1: 1.28
- nuclear/cytoplasmic p65 ratio, rep 2: 1.23
- low cell count flag: enough cells to score

Rps15a (GeneID 267019)
- nuclear/cytoplasmic p65 ratio, rep 1: 1.17
- nuclear/cytoplasmic p65 ratio, rep 2: 1.17
- low cell count flag: fewer than 50 cells per well; well left out of scoring

Sptlc2 (GeneID 20773)
- nuclear/cytoplasmic p65 ratio, rep 1: 1.49
- nuclear/cytoplasmic p65 ratio, rep 2: 1.18
- low cell count flag: fewer than 50 cells per well; well left out of scoring

Clmn (GeneID 94040)
- p65 translocation robust z-score: 0.31
- nuclear/cytoplasmic p65 ratio, rep 1: 1.78
- nuclear/cytoplasmic p65 ratio, rep 2: 1.69
- low cell count flag: enough cells to score

Mrps5 (GeneID 77721)
- p65 translocation robust z-score: -2.26 (active)
- nuclear/cytoplasmic p65 ratio, rep 1: 1.44
- nuclear/cytoplasmic p65 ratio, rep 2: 1.24
- low cell count flag: enough cells to score
